PubChem BioAssay AID652272, Drosophila RNAi Screening Center | 2013

Screen: 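Genome-wide knock-down search for components of Hedgehog signalling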 (primary screen)
Cells: Drosophila clone 8 (Cl8) cells
Knock-down reagent: long dsRNA against Drosophila genes
Detection: 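Plate reader light from a firefly reporter under a ptc promoter fragment that responds to Hedgehog, with Renilla light as transfection reference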
Direction: firefly Hh reporter signal: higher = more ptc reporter light; Renilla reference signal: higher = more Renilla control light
Active means: 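Called a hit if the two-replicate mean z-score lies below -2 or above +3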
Calls: active = hit: reporter lowered or raised; inactive = not a hit
The deposit covers about 21,000 reagents; below is an unselected part of those that have a named target and a result. Over the whole deposit, 503 (2.4%) were called active. 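Raw plate light values, not normalised; calls rest on replicate z-scores that were not deposited; hits include reporter decreases as well as increases.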 Not given: the amount of reagent, the time to read-out.

Sk1 [DRSC19774] → firefly Hh reporter signal, replicate 1: 61036; firefly Hh reporter signal, replicate 2: 1.19e5; Renilla reference signal, replicate 1: 2737; Renilla reference signal, replicate 2: 5848; call: inactive
Acyp2 [DRSC15336] → firefly Hh reporter signal, replicate 1: 1.20e5; firefly Hh reporter signal, replicate 2: 1.04e5; Renilla reference signal, replicate 1: 3401; Renilla reference signal, replicate 2: 2605; call: inactive
CG31955 [DRSC00285] → firefly Hh reporter signal, replicate 1: 2.31e5; firefly Hh reporter signal, replicate 2: 88677; Renilla reference signal, replicate 1: 5098; Renilla reference signal, replicate 2: 8328; call: inactive
nAChRalpha1 [DRSC13664] → firefly Hh reporter signal, replicate 1: 37829; firefly Hh reporter signal, replicate 2: 1.13e5; Renilla reference signal, replicate 1: 10176; Renilla reference signal, replicate 2: 2432; call: inactive
nAChRalpha1 [DRSC13670] → firefly Hh reporter signal, replicate 1: 35061; firefly Hh reporter signal, replicate 2: 33912; Renilla reference signal, replicate 1: 2122; Renilla reference signal, replicate 2: 9641; call: active
nAChRalpha1 [DRSC13672] → firefly Hh reporter signal, replicate 1: 40315; firefly Hh reporter signal, replicate 2: 2.22e5; Renilla reference signal, replicate 1: 9428; Renilla reference signal, replicate 2: 4181; call: inactive
nAChRalpha1 [DRSC17008] → firefly Hh reporter signal, replicate 1: 5.14e5; firefly Hh reporter signal, replicate 2: 1.07e5; Renilla reference signal, replicate 1: 28154; Renilla reference signal, replicate 2: 3465; call: inactive
stum [DRSC04268] → firefly Hh reporter signal, replicate 1: 1.05e5; firefly Hh reporter signal, replicate 2: 39755; Renilla reference signal, replicate 1: 2851; Renilla reference signal, replicate 2: 3462; call: inactive
stum [DRSC04270] → firefly Hh reporter signal, replicate 1: 79266; firefly Hh reporter signal, replicate 2: 43904; Renilla reference signal, replicate 1: 2272; Renilla reference signal, replicate 2: 3904; call: inactive
egl [DRSC04682] → firefly Hh reporter signal, replicate 1: 1.08e5; firefly Hh reporter signal, replicate 2: 1.02e5; Renilla reference signal, replicate 1: 3205; Renilla reference signal, replicate 2: 9466; call: inactive
cni [DRSC03512] → firefly Hh reporter signal, replicate 1: 1.87e5; firefly Hh reporter signal, replicate 2: 55284; Renilla reference signal, replicate 1: 4384; Renilla reference signal, replicate 2: 3458; call: inactive
SmydA-9 [DRSC17814] → firefly Hh reporter signal, replicate 1: 82608; firefly Hh reporter signal, replicate 2: 1.75e5; Renilla reference signal, replicate 1: 2433; Renilla reference signal, replicate 2: 6443; call: inactive
IP3K1 [DRSC02734] → firefly Hh reporter signal, replicate 1: 1.21e5; firefly Hh reporter signal, replicate 2: 77651; Renilla reference signal, replicate 1: 4567; Renilla reference signal, replicate 2: 3587; call: inactive
CG14230 [DRSC19586] → firefly Hh reporter signal, replicate 1: 61484; firefly Hh reporter signal, replicate 2: 79136; Renilla reference signal, replicate 1: 1431; Renilla reference signal, replicate 2: 2664; call: inactive

Part of the list above, reformatted.
cni [DRSC03512]
- firefly Hh reporter signal, replicate 1: 1.87e5
- firefly Hh reporter signal, replicate 2: 55284
- Renilla reference signal, replicate 1: 4384
- Renilla reference signal, replicate 2: 3458
- call: inactive

SmydA-9 [DRSC17814]
- firefly Hh reporter signal, replicate 1: 82608
- firefly Hh reporter signal, replicate 2: 1.75e5
- Renilla reference signal, replicate 1: 2433
- Renilla reference signal, replicate 2: 6443
- call: inactive
